Measurements from the supplement of paper PMC4635364.
Counter-ions that a name gives are not always drawn. The list shows a part of the results. Repeats in this data set agree poorly, so a single value says little.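 ReNCell VM, a human fetal ventral-midbrain neural progenitor line, was differentiated without mitogens. Blinded raters scored images stained for doublecortin (early neurons) or tyrosine hydroxylase (dopaminergic neurons) against untreated wells (0 = no change). Scores were averaged across repeats and both raters, and compounds averaging 2 or more were selected as hits for retesting.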

Assays:
ReNCell VM [1] = assay: neuronal differentiation score (DCX+ cell fraction vs untreated, manual image score) (score (-3 to 3)); higher = more neuronal differentiation; conditions: 2 uM, 2 weeks
ReNCell VM [2] = assay: dopaminergic neuron differentiation score (TH+ cell fraction vs untreated, manual image score) (score (0 to 3)); higher = more TH+ dopaminergic neuron differentiation; conditions: 2 uM, 4 weeks, BDNF 10 ng/ml + GDNF 10 ng/ml

In the case of `CC(=O)Oc1cccc(C(=O)O)c1OC(C)=O`, the neuronal differentiation score (ReNCell VM [1]; library: Spectrum) is reported as inactive: 0 and the “dopaminergic neuron differentiation score” value (ReNCell VM [2]; library: Spectrum) is reported as inactive: 0.
For `CCOc1ccc2nc3cc(N)ccc3c(N)c2c1`, the neuronal differentiation score (ReNCell VM [1]; library: Spectrum) was inactive: 0 and the “dopaminergic neuron differentiation score” value (ReNCell VM [2]; library: Spectrum) was inactive: 0.
`Cc1ncc([N+](=O)[O-])n1CCO` was tested, and the neuronal differentiation score (ReNCell VM [1]; library: Spectrum) was inactive: 1 and the “dopaminergic neuron differentiation score” value (ReNCell VM [2]; library: Spectrum) was inactive: 0.
For `CC1(C)CC2C1CC[C@]1(C)CCC3C(C(=O)O)CC(=O)O[C@@]32C1` (some centres not stated) [3-HYDROXY-4-(SUCCIN-2-YL)-CARYOLANE delta-LACTONE], the neuronal differentiation score (ReNCell VM [1]; library: Spectrum) was inactive: 0 and the “dopaminergic neuron differentiation score” value (ReNCell VM [2]; library: Spectrum) was inactive: 0.
`C[C@@H]1CC[C@@]2(OC1)O[C@H]1C[C@H]3[C@@H]4CC=C5C[C@@H](O)CC[C@]5(C)[C@H]4CC[C@]3(C)[C@H]1[C@@H]2C` was tested, and the neuronal differentiation score (ReNCell VM [1]; library: Spectrum) was inactive: 0 and the “dopaminergic neuron differentiation score” value (ReNCell VM [2]; library: Spectrum) was inactive: 0.
With `COc1cc2c(cc1OC)OC(C)(C)C=C2` [Precocene 2] the neuronal differentiation score (ReNCell VM [1]; library: Phytochemical) was inactive: 0 and the “dopaminergic neuron differentiation score” value (ReNCell VM [2]; library: Phytochemical) was inactive: 0.
For `N=C(N)N/N=C/c1c(Cl)cccc1Cl`, the neuronal differentiation score (ReNCell VM [1]; library: Spectrum) was inactive: 0 and the “dopaminergic neuron differentiation score” value (ReNCell VM [2]; library: Spectrum) was inactive: 0.
With `CCOc1nc2cccc(C(=O)O)c2n1Cc1ccc(-c2ccccc2-c2nnn[nH]2)cc1` the neuronal differentiation score (ReNCell VM [1]; library: Spectrum) was inactive: 0 and the “dopaminergic neuron differentiation score” value (ReNCell VM [2]; library: Spectrum) was inactive: 0.
In the case of `N[C@@H](Cc1ccc(O)c(O)c1)C(=O)O`, the neuronal differentiation score (ReNCell VM [1]; library: Spectrum) is reported as inactive: 0 and the “dopaminergic neuron differentiation score” value (ReNCell VM [2]; library: Spectrum) is reported as inactive: 0.
For `Cn1nnnc1SCC1=C(C(=O)O)N2C(=O)[C@@H](NC(=O)[C@H](OC=O)c3ccccc3)[C@H]2SC1`, the neuronal differentiation score (ReNCell VM [1]; library: Spectrum) was inactive: -1 and the “dopaminergic neuron differentiation score” value (ReNCell VM [2]; library: Spectrum) was inactive: 0.
In the case of `O=C1c2cccc(O)c2C(=O)c2c(O)cccc21`, the neuronal differentiation score (ReNCell VM [1]; library: Spectrum) is reported as inactive: 0 and the “dopaminergic neuron differentiation score” value (ReNCell VM [2]; library: Spectrum) is reported as inactive: 0.
For `NCCCCN`, the neuronal differentiation score (ReNCell VM [1]; library: Spectrum) was inactive: 0 and the “dopaminergic neuron differentiation score” value (ReNCell VM [2]; library: Spectrum) was inactive: 0.
`CC(=O)O[C@]1(C(C)=O)CC[C@H]2[C@@H]3C[C@H](C)C4=CC(=O)CC[C@]4(C)[C@H]3CC[C@@]21C` was tested, and the neuronal differentiation score (ReNCell VM [1]; library: Spectrum) was inactive: 0 and the “dopaminergic neuron differentiation score” value (ReNCell VM [2]; library: Spectrum) was inactive: 0.
`CC1=C(C(=O)O)N2C(=O)[C@@H](NC(=O)[C@H](N)C3=CCC=CC3)[C@H]2SC1` was tested, and the neuronal differentiation score (ReNCell VM [1]; library: Spectrum) was inactive: 0 and the “dopaminergic neuron differentiation score” value (ReNCell VM [2]; library: Spectrum) was inactive: 0.
With `c1cnc2c(c1)ccc1cccnc12` [1,10-Phenanthroline monohydrate] the neuronal differentiation score (ReNCell VM [1]; library: LOPAC) was inactive: 0 and the “dopaminergic neuron differentiation score” value (ReNCell VM [2]; library: LOPAC) was inactive: 0.
With `O=C(O)c1ccccc1C(=O)Nc1ccc(S(=O)(=O)Nc2nccs2)cc1` [Phthalylsulfathiazole] the neuronal differentiation score (ReNCell VM [1]; library: Prestwick) was inactive: 0 and the “dopaminergic neuron differentiation score” value (ReNCell VM [2]; library: Prestwick) was inactive: 0.
With `O=C(CCc1ccc(O)cc1)c1c(O)cc(O)cc1O` [Phloretin] the neuronal differentiation score (ReNCell VM [1]; library: LOPAC) was inactive: 0 and the “dopaminergic neuron differentiation score” value (ReNCell VM [2]; library: LOPAC) was inactive: 0.
For `CN[C@@H]1[C@H](O[C@H]2[C@H](O[C@H]3[C@H](O)[C@@H](O)[C@H](NC(=N)N)[C@@H](O)[C@@H]3NC(=N)N)O[C@@H](C)[C@]2(O)CO)O[C@@H](CO)[C@H](O)[C@H]1O`, the neuronal differentiation score (ReNCell VM [1]; library: Spectrum) was inactive: 0 and the “dopaminergic neuron differentiation score” value (ReNCell VM [2]; library: Spectrum) was inactive: 0.
With `CC(=O)Nc1ccc(OCC(O)CNC(C)C)cc1` (configuration not stated) [Practolol] the neuronal differentiation score (ReNCell VM [1]; library: Prestwick) was inactive: 0 and the “dopaminergic neuron differentiation score” value (ReNCell VM [2]; library: Prestwick) was inactive: 0.
For `C=C(NC(=O)C(=C)NC(=O)c1csc(C2=N[C@@H]3c4csc(n4)[C@H]4NC(=O)c5csc(n5)[C@H]([C@](C)(O)[C@@H](C)O)NC(=O)[C@H]5CSC(=N5)/C(=C/C)NC(=O)[C@H]([C@@H](C)O)NC(=O)c5csc(n5)[C@]3(CC2)NC(=O)[C@H](C)NC(=O)C(=C)NC(=O)[C@H](C)NC(=O)[C@H]([C@@H](C)CC)N[C@@H]2C=Cc3c([C@H](C)O)cc(nc3[C@H]2O)C(=O)O[C@@H]4C)n1)C(N)=O`, the neuronal differentiation score (ReNCell VM [1]; library: Spectrum) was inactive: 0 and the “dopaminergic neuron differentiation score” value (ReNCell VM [2]; library: Spectrum) was inactive: 0.
`CC(Cc1ccccc1)(NC(=O)CN)c1ccccc1` (configuration not stated) [Remacemide hydrochloride] was tested, and the neuronal differentiation score (ReNCell VM [1]; library: Tocriscreen) was inactive: 0 and the “dopaminergic neuron differentiation score” value (ReNCell VM [2]; library: Tocriscreen) was inactive: 0.
For `Nc1ccc(C(=O)O)c(O)c1`, the neuronal differentiation score (ReNCell VM [1]; library: Spectrum) was inactive: 0 and the “dopaminergic neuron differentiation score” value (ReNCell VM [2]; library: Spectrum) was inactive: 0.
With `COc1cc(C)c2c(c1C=O)Oc1c(c(C)c(O)c3c1C(O)OC3=O)OC2=O` (configuration not stated) the neuronal differentiation score (ReNCell VM [1]; library: Spectrum) was inactive: 0 and the “dopaminergic neuron differentiation score” value (ReNCell VM [2]; library: Spectrum) was inactive: 0.
`Cc1c(Cl)cccc1Nc1ccccc1C(=O)O` [Tolfenamic acid] was tested, and the neuronal differentiation score (ReNCell VM [1]; library: Prestwick) was inactive: 0 and the “dopaminergic neuron differentiation score” value (ReNCell VM [2]; library: Prestwick) was inactive: 0.
`[O-][n+]1cccc(CO)c1` was tested, and the neuronal differentiation score (ReNCell VM [1]; library: Spectrum) was inactive: 0 and the “dopaminergic neuron differentiation score” value (ReNCell VM [2]; library: Spectrum) was inactive: 0.
For `CC1=CC(=O)[C@H]2C(C)(C)CCC[C@]2(C)[C@@]1(O)CCc1ccoc1`, the neuronal differentiation score (ReNCell VM [1]; library: Spectrum) was inactive: 0 and the “dopaminergic neuron differentiation score” value (ReNCell VM [2]; library: Spectrum) was inactive: 0.
For `NC(=O)c1cccc(N)c1` [3-Aminobenzamide], the neuronal differentiation score (ReNCell VM [1]; library: Tocriscreen) was inactive: 0 and the “dopaminergic neuron differentiation score” value (ReNCell VM [2]; library: Tocriscreen) was inactive: 0.
For `CC[N+](C)(C)c1cccc(O)c1`, the neuronal differentiation score (ReNCell VM [1]; library: Spectrum) was inactive: 0 and the “dopaminergic neuron differentiation score” value (ReNCell VM [2]; library: Spectrum) was inactive: 0.
`CN(C)c1cc2c(Nc3ccc4c(cnn4Cc4ccccc4)c3)ncnc2cn1` was tested, and the neuronal differentiation score (ReNCell VM [1]; library: LOPAC) was inactive: 0 and the “dopaminergic neuron differentiation score” value (ReNCell VM [2]; library: LOPAC) was inactive: 0.
For `CCN(CC)C(C)CN1c2ccccc2Sc2ccccc21` (configuration not stated), the neuronal differentiation score (ReNCell VM [1]; library: Spectrum) was inactive: 0 and the “dopaminergic neuron differentiation score” value (ReNCell VM [2]; library: Spectrum) was inactive: 0.
For `CC(=O)OCC(=O)[C@@]12N=C(C)O[C@@H]1C[C@H]1[C@@H]3CCC4=CC(=O)C=C[C@]4(C)[C@H]3[C@@H](O)C[C@@]12C`, the neuronal differentiation score (ReNCell VM [1]; library: Spectrum) was inactive: 1 and the “dopaminergic neuron differentiation score” value (ReNCell VM [2]; library: Spectrum) was inactive: 0.
